Results published in the supplement of paper PMC10331698.
± gives the standard deviation of the averaged measurements. Small differences around the control level are noise.

Legend:
Test in all cases: level (log10 ratio to DMSO vehicle control); higher = higher biomarker level / cell amount than vehicle control
[1] = compound: FC(F)(F)C(F)(F)C(F)(F)C(F)(F)CCI [1H,1H,2H,2H-Perfluorohexyl iodide] (in DMSO); settings: 2200 nM
Experimental: (§1)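 BioMAP Diversity Plus panel of 12 human primary cell co-culture systems (3C, 4H, LPS, SAg, BT, BF4T, BE3C, CASM3C, HDF3CGF, KF3CT, MyoF, Mphg). Compounds were added 1 h before stimulation and left for 24 h (MyoF 48 h; BT 72 h for soluble read-outs or 6 d for IgG). Biomarkers were read by ELISA, cytotoxicity by SRB, PBMC viability and proliferation by Alamar Blue. Each well value was divided by the mean of 8 DMSO control wells on the same plate and log10 transformed; duplicate blinded samples were tested at 4 concentrations.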

Hexafluoroglutaric acid = compound: O=C(O)C(F)(F)C(F)(F)C(F)(F)C(=O)O [Hexafluoroglutaric acid] (in DMSO)
Experimental: as §1

[2] = compound: FC(F)(F)C(F)(F)CNCC(F)(F)C(F)(F)F [Bis(1H,1H-perfluoropropyl)amine] (in DMSO); settings: 2200 nM
Experimental: as §1

[3] = compound: OCC(F)(F)C(F)(F)C(F)(F)C(F)(F)C(F)(F)C(F)(F)F [6:1 Fluorotelomer alcohol] (in DMSO); settings: 2200 nM
Experimental: as §1

[4] = compound: FC(F)(F)COC(OCC(F)(F)F)OCC(F)(F)F [tris(Trifluoroethoxy)methane] (in DMSO); settings: 2200 nM
Experimental: as §1

[5] = compound: O=C(O)C(F)(OC(F)(F)C(F)(F)C(F)(F)F)C(F)(F)F [Ammonium perfluoro-2-methyl-3-oxahexanoate] (in Water)
Experimental: as §1

[6] = compound: OCCCC(F)(F)C(F)(F)C(F)(F)C(F)(F)C(F)(F)C(F)(F)C(F)(F)C(F)(F)F [3-(Perfluorooctyl)propanol] (in DMSO); settings: 2200 nM
Experimental: as §1

[7] = compound: O=C(O)C(F)(OC(F)(F)C(F)(OC(F)(F)C(F)(OC(F)(F)C(F)(F)C(F)(F)F)C(F)(F)F)C(F)(F)F)C(F)(F)F [Perfluoro-(2,5,8-trimethyl-3,6,9-trioxadodecanoic)acid] (in DMSO); settings: 370 nM
Experimental: as §1

[8] = compound: O=C(O)C(F)(F)C(F)(F)C(F)(F)OC(F)(C(F)(F)F)C(F)(F)F [Perfluoro-4-isopropoxybutanoic acid] (in DMSO); settings: 2200 nM
Experimental: as §1

[9] = compound: O=S(=O)(O)C(F)(F)C(F)(F)C(F)(F)C(F)(F)F [Perfluorobutanesulfonic acid] (in DMSO)
Experimental: as §1

[10] = compound: OCC(F)(F)C(F)(F)C(F)(F)C(F)(F)C(F)(F)C(F)(F)CO [1H,1H,8H,8H-Perfluorooctane-1,8-diol] (in DMSO); settings: 2200 nM
Experimental: as §1

[11] = compound: C=C(C)C(=O)OCCC(F)(F)C(F)(F)C(F)(F)C(F)(F)C(F)(F)C(F)(F)F [6:2 Fluorotelomer methacrylate] (in DMSO); settings: 2200 nM
Experimental: as §1

[12] = compound: OCC(F)(F)C(F)(F)C(F)(F)C(F)F [1H,1H,5H-Perfluoropentanol] (in DMSO); settings: 2200 nM
Experimental: as §1

Perfluorohexanoic acid = compound: O=C(O)C(F)(F)C(F)(F)C(F)(F)C(F)(F)C(F)(F)F [Perfluorohexanoic acid] (in DMSO)
Experimental: as §1

[13] = compound: OCC(F)(F)OC(F)(F)C(F)(F)OC(F)(F)CO [1H,1H,8H,8H-Perfluoro-3,6-dioxaoctane-1,8-diol] (in DMSO); settings: 2200 nM
Experimental: as §1

[14] = compound: O=C(O)CCC(F)(F)C(F)(F)C(F)(F)F [3:3 Fluorotelomer carboxylic acid] (in DMSO); settings: 2200 nM
Experimental: as §1

[15] = compound: CNS(=O)(=O)C(F)(F)C(F)(F)C(F)(F)C(F)(F)C(F)(F)C(F)(F)C(F)(F)C(F)(F)F [N-Methylperfluorooctanesulfonamide] (in DMSO); settings: 2200 nM
Experimental: as §1

3C:CCL2/MCP-1
level (log10) [1]: 0.014 ± 0.021 | level (log10) (Hexafluoroglutaric acid; 2200 nM): 0.009 ± 0.027 | level (log10) (Hexafluoroglutaric acid; 6700 nM): -0.0005 ± 0.0035 | level (log10) (Hexafluoroglutaric acid; 20000 nM): 0.0095 ± 0.0035 | level (log10) (Hexafluoroglutaric acid; 60000 nM): 0.028 ± 0.018 | level (log10) [2]: 0.004 ± 0.016 | level (log10) [3]: -0.003 ± 0.024 | level (log10) [4]: 0.0025 ± 0.044 | level (log10) ([5]; 2200 nM): 0.0315 ± 0.044 | level (log10) ([5]; 6700 nM): -0.003 ± 0.0085 | level (log10) ([5]; 20000 nM): -0.004 ± 0.016 | level (log10) ([5]; 60000 nM): 0.056 ± 0.05 | level (log10) [6]: -0.006 ± 0.024 | level (log10) [7]: 0.0035 ± 0.042 | level (log10) [8]: 0.0185 ± 0.03 | level (log10) ([9]; 2200 nM): 0.026 ± 0.086 | level (log10) ([9]; 6700 nM): 0.0025 ± 0.05 | level (log10) ([9]; 20000 nM): 0.0015 ± 0.021 | level (log10) ([9]; 60000 nM): 0.0355 ± 0.043 | level (log10) [10]: 0.026 ± 0.016 | level (log10) [11]: 0.0175 ± 0.084 | level (log10) [12]: 0.007 ± 0.018 | level (log10) (Perfluorohexanoic acid; 2200 nM): 0.0115 ± 0.019 | level (log10) (Perfluorohexanoic acid; 6700 nM): -0.006 ± 0.0028 | level (log10) (Perfluorohexanoic acid; 20000 nM): -0.0145 ± 0.005 | level (log10) (Perfluorohexanoic acid; 60000 nM): 0.0115 ± 0.022 | level (log10) [13]: 0.0285 ± 0.0064 | level (log10) [14]: 0.0025 ± 0.0064 | level (log10) [15]: 0.0315 ± 0.0092

3C:CD54/ICAM-1
level (log10) [1]: -0.0085 ± 0.026 | level (log10) (Hexafluoroglutaric acid; 2200 nM): -0.0045 ± 0.032 | level (log10) (Hexafluoroglutaric acid; 6700 nM): -0.0125 ± 0.018 | level (log10) (Hexafluoroglutaric acid; 20000 nM): -0.0165 ± 0.019 | level (log10) (Hexafluoroglutaric acid; 60000 nM): -0.0175 ± 0.018 | level (log10) [2]: 0.0075 ± 0.0078 | level (log10) [3]: 0.0115 ± 0.018 | level (log10) [4]: -0.003 ± 0.011 | level (log10) ([5]; 2200 nM): 0.006 ± 0.0071 | level (log10) ([5]; 6700 nM): -0.0255 ± 0.0092 | level (log10) ([5]; 20000 nM): 0.0065 ± 0.00071 | level (log10) ([5]; 60000 nM): 0.0055 ± 0.011 | level (log10) [6]: 0.011 ± 0.05 | level (log10) [7]: 0.006 ± 0.021 | level (log10) [8]: 0 ± 0.0099 | level (log10) ([9]; 2200 nM): -0.002 ± 0.0071 | level (log10) ([9]; 6700 nM): -0.008 ± 0.0014 | level (log10) ([9]; 20000 nM): 0.0035 ± 0.0021 | level (log10) ([9]; 60000 nM): 0.0015 ± 0.0021 | level (log10) [10]: 0.016 ± 0.03 | level (log10) [11]: -0.004 ± 0.0085 | level (log10) [12]: -0.002 | level (log10) (Perfluorohexanoic acid; 2200 nM): 0.0085 ± 0.018 | level (log10) (Perfluorohexanoic acid; 6700 nM): 0.005 ± 0.013 | level (log10) (Perfluorohexanoic acid; 20000 nM): -0.0045 ± 0.016 | level (log10) (Perfluorohexanoic acid; 60000 nM): -0.0005 ± 0.019 | level (log10) [13]: -0.0155 ± 0.0064 | level (log10) [14]: -0.0275 ± 0.011 | level (log10) [15]: -0.0035 ± 0.012

3C:CD62E/E-Selectin
level (log10) [1]: -0.0105 ± 0.028 | level (log10) (Hexafluoroglutaric acid; 2200 nM): -0.002 ± 0.059 | level (log10) (Hexafluoroglutaric acid; 6700 nM): -0.0035 ± 0.053 | level (log10) (Hexafluoroglutaric acid; 20000 nM): -0.002 ± 0.038 | level (log10) (Hexafluoroglutaric acid; 60000 nM): 0.031 ± 0.014 | level (log10) [2]: 0.001 ± 0.0057 | level (log10) [3]: 0 ± 0.041 | level (log10) [4]: -0.0085 ± 0.021 | level (log10) ([5]; 2200 nM): 0.0055 ± 0.021 | level (log10) ([5]; 6700 nM): 0.0025 ± 0.005 | level (log10) ([5]; 20000 nM): 0.0105 ± 0.011 | level (log10) ([5]; 60000 nM): 0.011 ± 0.011 | level (log10) [6]: 0.0045 ± 0.016 | level (log10) [7]: -0.0015 ± 0.029 | level (log10) [8]: -0.013 ± 0.038 | level (log10) ([9]; 2200 nM): -0.0085 ± 0.0021 | level (log10) ([9]; 6700 nM): -0.0165 ± 0.022 | level (log10) ([9]; 20000 nM): -0.008 ± 0.021 | level (log10) ([9]; 60000 nM): 0.0045 ± 0.021 | level (log10) [10]: 0.008 ± 0.024 | level (log10) [11]: -0.027 ± 0.013 | level (log10) [12]: 0.0015 ± 0.035 | level (log10) (Perfluorohexanoic acid; 2200 nM): 0.015 ± 0.018 | level (log10) (Perfluorohexanoic acid; 6700 nM): -0.0065 ± 0.0092 | level (log10) (Perfluorohexanoic acid; 20000 nM): -0.007 ± 0.011 | level (log10) (Perfluorohexanoic acid; 60000 nM): 0.0145 ± 0.029 | level (log10) [13]: -0.01 ± 0.013 | level (log10) [14]: -0.009 ± 0.018 | level (log10) [15]: 0.002 ± 0.028
